The record followed here is US4629723A (Ortho Pharmaceutical Corporation, priority 1984, dated 1986).

The data set can be described thus: general procedure: Boc solid-phase peptide synthesis; Boc-Phe Merrifield (chloromethylated) resin; p-methylbenzhydrylamine (MBHA) resin; DCC; DCC/HOBt. The note with it: whole synthesis, TLC; HPLC.

Regarding Arginyl-Lysyl-Aspartyl-Valyl-Tryptophan, the “final purity (method not given)” value is recorded as 93% pure.
